No constants are given. Whether binding was seen depends on the method and setting. Some binding calls cover weakened binding; strength is not graded here. Sequences can lack the tags named with a protein. Each block holds one binder with its values, some of them ahead of it.
Key:
[1] = target: full-length PlexA2 with an N-terminal 6xMyc tag (mouse) (UniProt P70207); assay: cis competition on co-transfected cells; membrane-bound Sema5A constructs co-expressed with PlexA2 in the same COS7 cells; read out as loss of binding of bath applied Sema5A-Fc
[2] = target: full-length PlexA1 with an N-terminal 6xMyc tag (mouse) (UniProt P70206); assay: binding of AP-clustered Fc fusion protein to transfected cells; COS7 cells transfected with PlexA or semaphorin constructs, incubated 75 min in OptiMEM with Fc fusion protein preclustered with anti-human IgG conjugated to alkaline phosphatase; rinsed, fixed, developed with NBT/BCIP; only the binder purified
[3] = target: full-length PlexA2 with an N-terminal 6xMyc tag (mouse) (UniProt P70207); assay: as above

Protein sequences, listed by entry. Tags and fused reporters are not part of them. Residues count along the entry.
UniProt P70207, residues 35-1894: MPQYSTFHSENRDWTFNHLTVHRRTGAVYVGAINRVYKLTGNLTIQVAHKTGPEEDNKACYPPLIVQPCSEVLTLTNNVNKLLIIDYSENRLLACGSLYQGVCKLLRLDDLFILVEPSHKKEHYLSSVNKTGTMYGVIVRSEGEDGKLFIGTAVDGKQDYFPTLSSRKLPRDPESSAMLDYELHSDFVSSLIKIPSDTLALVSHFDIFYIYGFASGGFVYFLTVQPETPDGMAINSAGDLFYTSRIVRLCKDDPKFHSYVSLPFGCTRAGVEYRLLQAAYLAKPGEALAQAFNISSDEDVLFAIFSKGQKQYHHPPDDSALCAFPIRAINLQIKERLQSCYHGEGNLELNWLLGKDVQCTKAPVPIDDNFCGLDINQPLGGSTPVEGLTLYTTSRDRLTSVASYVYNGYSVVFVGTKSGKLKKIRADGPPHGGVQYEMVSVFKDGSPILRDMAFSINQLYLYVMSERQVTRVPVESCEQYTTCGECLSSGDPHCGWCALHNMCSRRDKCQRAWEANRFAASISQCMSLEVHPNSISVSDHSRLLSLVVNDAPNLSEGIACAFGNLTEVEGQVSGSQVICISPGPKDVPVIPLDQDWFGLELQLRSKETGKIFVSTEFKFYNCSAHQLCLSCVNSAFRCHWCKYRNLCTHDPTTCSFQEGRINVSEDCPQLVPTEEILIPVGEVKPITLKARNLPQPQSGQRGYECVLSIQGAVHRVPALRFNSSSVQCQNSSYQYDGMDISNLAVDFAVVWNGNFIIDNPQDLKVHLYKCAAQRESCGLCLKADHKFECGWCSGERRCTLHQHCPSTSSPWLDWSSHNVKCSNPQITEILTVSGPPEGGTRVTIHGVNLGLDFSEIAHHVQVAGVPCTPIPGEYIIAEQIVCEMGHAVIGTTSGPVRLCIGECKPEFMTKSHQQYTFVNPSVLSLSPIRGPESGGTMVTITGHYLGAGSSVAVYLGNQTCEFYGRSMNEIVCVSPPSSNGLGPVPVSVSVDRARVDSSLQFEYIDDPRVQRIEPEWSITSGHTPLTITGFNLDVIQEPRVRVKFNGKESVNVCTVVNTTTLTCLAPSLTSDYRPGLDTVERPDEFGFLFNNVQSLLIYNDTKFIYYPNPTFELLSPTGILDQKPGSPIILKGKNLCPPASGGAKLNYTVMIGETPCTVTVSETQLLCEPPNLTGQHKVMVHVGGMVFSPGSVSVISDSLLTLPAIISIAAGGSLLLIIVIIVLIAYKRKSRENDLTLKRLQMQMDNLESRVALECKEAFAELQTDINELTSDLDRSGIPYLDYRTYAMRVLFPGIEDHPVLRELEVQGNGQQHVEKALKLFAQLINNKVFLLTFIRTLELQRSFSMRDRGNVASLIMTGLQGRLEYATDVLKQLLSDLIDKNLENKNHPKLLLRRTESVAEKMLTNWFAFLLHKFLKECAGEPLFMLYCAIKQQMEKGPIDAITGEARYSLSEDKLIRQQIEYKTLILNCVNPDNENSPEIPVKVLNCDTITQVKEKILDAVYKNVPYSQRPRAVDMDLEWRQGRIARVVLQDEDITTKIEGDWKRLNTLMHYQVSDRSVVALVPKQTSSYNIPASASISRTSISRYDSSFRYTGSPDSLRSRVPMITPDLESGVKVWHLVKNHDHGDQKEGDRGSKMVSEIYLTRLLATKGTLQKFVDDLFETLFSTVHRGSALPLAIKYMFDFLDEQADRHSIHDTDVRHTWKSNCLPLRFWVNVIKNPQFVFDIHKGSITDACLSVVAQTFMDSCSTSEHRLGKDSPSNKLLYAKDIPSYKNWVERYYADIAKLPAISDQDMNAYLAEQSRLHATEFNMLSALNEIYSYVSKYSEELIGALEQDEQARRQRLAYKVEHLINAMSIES
UniProt P70206, residues 28-1894: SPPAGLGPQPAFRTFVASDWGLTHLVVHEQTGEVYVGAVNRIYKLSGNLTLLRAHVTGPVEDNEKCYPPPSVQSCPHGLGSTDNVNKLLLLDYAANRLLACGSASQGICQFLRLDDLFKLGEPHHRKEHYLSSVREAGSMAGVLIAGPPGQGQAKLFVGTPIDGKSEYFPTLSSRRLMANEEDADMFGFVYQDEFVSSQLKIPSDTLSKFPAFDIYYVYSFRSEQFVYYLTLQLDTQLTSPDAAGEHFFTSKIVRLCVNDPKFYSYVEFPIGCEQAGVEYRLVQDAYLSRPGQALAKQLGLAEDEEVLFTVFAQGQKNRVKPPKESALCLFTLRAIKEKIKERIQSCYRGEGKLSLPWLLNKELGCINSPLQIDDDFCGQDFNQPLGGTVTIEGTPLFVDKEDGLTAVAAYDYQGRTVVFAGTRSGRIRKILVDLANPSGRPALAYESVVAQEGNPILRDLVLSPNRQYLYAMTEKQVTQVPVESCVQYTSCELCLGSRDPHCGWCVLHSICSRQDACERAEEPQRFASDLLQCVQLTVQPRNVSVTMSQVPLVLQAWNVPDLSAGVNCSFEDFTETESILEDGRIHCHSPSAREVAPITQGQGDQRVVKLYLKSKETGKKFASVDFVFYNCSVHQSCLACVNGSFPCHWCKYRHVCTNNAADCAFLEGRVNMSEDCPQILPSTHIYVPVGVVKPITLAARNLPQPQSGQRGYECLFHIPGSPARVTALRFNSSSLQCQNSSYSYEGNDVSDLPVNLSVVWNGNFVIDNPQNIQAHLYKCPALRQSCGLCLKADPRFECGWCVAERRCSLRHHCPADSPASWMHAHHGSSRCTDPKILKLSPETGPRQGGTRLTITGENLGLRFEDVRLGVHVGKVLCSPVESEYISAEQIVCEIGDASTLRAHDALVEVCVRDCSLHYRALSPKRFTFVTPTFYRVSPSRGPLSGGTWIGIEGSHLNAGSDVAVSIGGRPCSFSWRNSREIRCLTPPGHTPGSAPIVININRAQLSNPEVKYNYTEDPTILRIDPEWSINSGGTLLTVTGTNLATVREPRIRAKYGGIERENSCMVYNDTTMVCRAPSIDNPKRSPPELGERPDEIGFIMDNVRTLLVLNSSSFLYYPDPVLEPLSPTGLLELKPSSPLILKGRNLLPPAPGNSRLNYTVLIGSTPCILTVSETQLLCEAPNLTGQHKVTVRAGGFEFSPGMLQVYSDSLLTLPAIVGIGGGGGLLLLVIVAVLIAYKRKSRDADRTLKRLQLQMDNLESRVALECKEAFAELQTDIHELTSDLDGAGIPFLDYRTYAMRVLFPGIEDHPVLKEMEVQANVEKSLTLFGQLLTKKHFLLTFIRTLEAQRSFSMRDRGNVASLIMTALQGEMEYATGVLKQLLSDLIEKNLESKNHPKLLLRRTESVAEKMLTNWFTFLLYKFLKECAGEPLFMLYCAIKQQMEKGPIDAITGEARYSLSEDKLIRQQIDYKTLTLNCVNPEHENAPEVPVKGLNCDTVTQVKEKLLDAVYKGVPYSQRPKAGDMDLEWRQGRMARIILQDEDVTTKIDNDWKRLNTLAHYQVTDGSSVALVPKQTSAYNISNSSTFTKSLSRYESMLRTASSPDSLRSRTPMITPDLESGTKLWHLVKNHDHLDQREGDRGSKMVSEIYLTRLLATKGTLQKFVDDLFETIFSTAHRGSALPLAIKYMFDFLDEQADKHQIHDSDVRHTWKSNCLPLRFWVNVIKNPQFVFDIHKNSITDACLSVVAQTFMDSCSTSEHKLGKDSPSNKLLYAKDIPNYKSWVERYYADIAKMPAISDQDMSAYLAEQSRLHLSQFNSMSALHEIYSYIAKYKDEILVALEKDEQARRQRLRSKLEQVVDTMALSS

binding [1]: binds
B1: 6xMyc N-terminal-tagged full-length (FL)-Sema5A (ligand, UniProt D3ZTD8 23-1074)
chain: ETQDPAKCQRAEHPVVSYKEIGPWLREFRAENAVDFSRLTFDPGQKELVVGARNYLFRLQLEDLSLIQAVQWECDEATKKACYSKGKSKEECQNYIRVLLVGGDRLFTCGTNAFTPVCTIRSLSNLTEIHDQISGMARCPYSPQHNSTALLTASGELYAATAMDFPGRDPAIYRSLGTLPPLRTAQYNSKWLNEPNFVSSYDIGNFTYFFFRENAVEHDCGKTVFSRAARVCKNDIGGRFLLEDTWTTFMKARLNCSRPGEVPFYYNELQSTFFLPELDLIYGIFTTNVNSIAASAVCVFNLSAISQAFNGPFKYQENSRSAWLPYPNPNPNFQCGTMDQGLYVNLTERNLQDAQKFILMHEVVQPVTTVPSFMEDNSRFSHVAVDVVQGRDTLVHIIYLATDYGTIKKVRAPLSQSSGSCLLEEIELFPERKSEPIRSLKILHSQSVLFVGLQEHVVKIPLKRCHFHQTRGACIGAQDPYCGWDAVMKKCTSLEESLSMTQWDQSVPTCPTRNLTVDGSFGPWSPWTPCTHTDGTAVGSCLCRSRSCDSPAPQCGGWQCEGPRMEITNCSRNGGWTPWTSWSPCSTTCGIGFQVRQRSCSNPTPRHGGRVCVGQNREERYCNEHLLCPPHVFWTGWGPWERCTAQCGGGIQARRRTCENGPDCAGCNVEYQPCNTNACPELKKTTPWTPWTPVNISDNGGHYEQRFRYTCKARLPDPNLLEVGRQRIEMRYCSSDGTSGCSTDGLSGDFLRAGRYSAHTVNGAWSAWTSWSQCSRDCSRGIRNRKRVCNNPEPKYGGMPCLGPSLEFQECNILPCPVDGVWSCWSSWSKCSATCGGGHYMRTRSCTNPAPAYGGDICLGLHTEEALCNTQTCPENWSEWSEWSVCDASGTQVRTRQCILLFPVGSQCSGNTTESRPCVFDSNFIPEVSVARSSSVEEKRCGEFNMFHMMAVGLSSSILGCLLTLLVYTYCQRYQQQSHDATVIHPVSPAALNSSITNHINKLDKYDSVEAIKAFNKNNLILEERNKYFNPHLTGKTYSNAYFTDLNNYDEY

binding [1]: binds
B2: Sema5A lacking the cytoplasmic domain (6xMyc-Sema5A^Δcyt) (ligand, UniProt D3ZTD8 23-999)
chain: ETQDPAKCQRAEHPVVSYKEIGPWLREFRAENAVDFSRLTFDPGQKELVVGARNYLFRLQLEDLSLIQAVQWECDEATKKACYSKGKSKEECQNYIRVLLVGGDRLFTCGTNAFTPVCTIRSLSNLTEIHDQISGMARCPYSPQHNSTALLTASGELYAATAMDFPGRDPAIYRSLGTLPPLRTAQYNSKWLNEPNFVSSYDIGNFTYFFFRENAVEHDCGKTVFSRAARVCKNDIGGRFLLEDTWTTFMKARLNCSRPGEVPFYYNELQSTFFLPELDLIYGIFTTNVNSIAASAVCVFNLSAISQAFNGPFKYQENSRSAWLPYPNPNPNFQCGTMDQGLYVNLTERNLQDAQKFILMHEVVQPVTTVPSFMEDNSRFSHVAVDVVQGRDTLVHIIYLATDYGTIKKVRAPLSQSSGSCLLEEIELFPERKSEPIRSLKILHSQSVLFVGLQEHVVKIPLKRCHFHQTRGACIGAQDPYCGWDAVMKKCTSLEESLSMTQWDQSVPTCPTRNLTVDGSFGPWSPWTPCTHTDGTAVGSCLCRSRSCDSPAPQCGGWQCEGPRMEITNCSRNGGWTPWTSWSPCSTTCGIGFQVRQRSCSNPTPRHGGRVCVGQNREERYCNEHLLCPPHVFWTGWGPWERCTAQCGGGIQARRRTCENGPDCAGCNVEYQPCNTNACPELKKTTPWTPWTPVNISDNGGHYEQRFRYTCKARLPDPNLLEVGRQRIEMRYCSSDGTSGCSTDGLSGDFLRAGRYSAHTVNGAWSAWTSWSQCSRDCSRGIRNRKRVCNNPEPKYGGMPCLGPSLEFQECNILPCPVDGVWSCWSSWSKCSATCGGGHYMRTRSCTNPAPAYGGDICLGLHTEEALCNTQTCPENWSEWSEWSVCDASGTQVRTRQCILLFPVGSQCSGNTTESRPCVFDSNFIPEVSVARSSSVEEKRCGEFNMFHMMAVGLSSSILGCLLTLLVYTYCQRYQQQ

binding [1]: binds
B3: membrane-bound Sema5A lacking the seven TSRs (6xMyc-Sema5A^ΔTSR) (ligand, UniProt D3ZTD8 23-539; D3ZTD8 951-1074)
chain: ETQDPAKCQRAEHPVVSYKEIGPWLREFRAENAVDFSRLTFDPGQKELVVGARNYLFRLQLEDLSLIQAVQWECDEATKKACYSKGKSKEECQNYIRVLLVGGDRLFTCGTNAFTPVCTIRSLSNLTEIHDQISGMARCPYSPQHNSTALLTASGELYAATAMDFPGRDPAIYRSLGTLPPLRTAQYNSKWLNEPNFVSSYDIGNFTYFFFRENAVEHDCGKTVFSRAARVCKNDIGGRFLLEDTWTTFMKARLNCSRPGEVPFYYNELQSTFFLPELDLIYGIFTTNVNSIAASAVCVFNLSAISQAFNGPFKYQENSRSAWLPYPNPNPNFQCGTMDQGLYVNLTERNLQDAQKFILMHEVVQPVTTVPSFMEDNSRFSHVAVDVVQGRDTLVHIIYLATDYGTIKKVRAPLSQSSGSCLLEEIELFPERKSEPIRSLKILHSQSVLFVGLQEHVVKIPLKRCHFHQTRGACIGAQDPYCGWDAVMKKCTSLEESLSMTQWDQSVPTCPTRNLTVSVARSSSVEEKRCGEFNMFHMMAVGLSSSILGCLLTLLVYTYCQRYQQQSHDATVIHPVSPAALNSSITNHINKLDKYDSVEAIKAFNKNNLILEERNKYFNPHLTGKTYSNAYFTDLNNYDEY

binding [2]: binds | binding [3]: binds
B4: Sema5A^Sema-Fc (sema domain of Sema5A fused to Fc) (Fc fusion, UniProt D3ZTD8 23-539)
chain: ETQDPAKCQRAEHPVVSYKEIGPWLREFRAENAVDFSRLTFDPGQKELVVGARNYLFRLQLEDLSLIQAVQWECDEATKKACYSKGKSKEECQNYIRVLLVGGDRLFTCGTNAFTPVCTIRSLSNLTEIHDQISGMARCPYSPQHNSTALLTASGELYAATAMDFPGRDPAIYRSLGTLPPLRTAQYNSKWLNEPNFVSSYDIGNFTYFFFRENAVEHDCGKTVFSRAARVCKNDIGGRFLLEDTWTTFMKARLNCSRPGEVPFYYNELQSTFFLPELDLIYGIFTTNVNSIAASAVCVFNLSAISQAFNGPFKYQENSRSAWLPYPNPNPNFQCGTMDQGLYVNLTERNLQDAQKFILMHEVVQPVTTVPSFMEDNSRFSHVAVDVVQGRDTLVHIIYLATDYGTIKKVRAPLSQSSGSCLLEEIELFPERKSEPIRSLKILHSQSVLFVGLQEHVVKIPLKRCHFHQTRGACIGAQDPYCGWDAVMKKCTSLEESLSMTQWDQSVPTCPTRNLTV
